Some of the results follow.
How the values were obtained:
Experiment in all cases: log2 fold change, soluble protein after heating vs DMSO (PISA); higher = thermal stabilisation; K562 lysate, 10 uM; active = over 0.2 and 3.5 SD of the protein, either way, in both replicates (recomputed)
ibrutinib = compound: C=CC(=O)N1CCC[C@@H](n2nc(-c3ccc(Oc4ccccc4)cc3)c3c(N)ncnc32)C1 [ibrutinib]
Summary of the method: (§1)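 Following dounce homogenisation of K562 pellets in PBS pH 7.4 with 1 mM MgCl2, crude extract at 1 mg/mL protein was incubated for 30 min with 10 μM compound. Aliquots were then heated for 3 min over 48°C-58°C and pooled, NP-40 was added to 0.5% at 4°C, and soluble protein was recovered as the supernatant at 21,000xg for 90 min. Channel-sum-equalised TMTpro 16plex LC-MS/MS quantified this protein. Each value, from duplicates, is a log-two fold change in thermal stability relative to solvent controls.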

Amino acid sequences for entries named in this document (tags omitted). A change or cut given only in a name is not applied to a line headed by its entry.
UniProt Q6P6C2: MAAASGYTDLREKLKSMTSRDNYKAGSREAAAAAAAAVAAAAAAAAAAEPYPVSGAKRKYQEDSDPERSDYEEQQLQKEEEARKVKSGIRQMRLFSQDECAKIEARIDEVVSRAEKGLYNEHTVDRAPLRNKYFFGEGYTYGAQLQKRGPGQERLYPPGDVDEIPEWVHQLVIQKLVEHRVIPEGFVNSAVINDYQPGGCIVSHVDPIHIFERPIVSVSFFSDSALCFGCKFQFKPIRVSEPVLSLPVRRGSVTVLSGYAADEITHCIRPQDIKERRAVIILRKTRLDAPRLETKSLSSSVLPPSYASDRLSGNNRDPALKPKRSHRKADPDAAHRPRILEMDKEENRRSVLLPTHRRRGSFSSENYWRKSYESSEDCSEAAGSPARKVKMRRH
UniProt Q9H8Y5: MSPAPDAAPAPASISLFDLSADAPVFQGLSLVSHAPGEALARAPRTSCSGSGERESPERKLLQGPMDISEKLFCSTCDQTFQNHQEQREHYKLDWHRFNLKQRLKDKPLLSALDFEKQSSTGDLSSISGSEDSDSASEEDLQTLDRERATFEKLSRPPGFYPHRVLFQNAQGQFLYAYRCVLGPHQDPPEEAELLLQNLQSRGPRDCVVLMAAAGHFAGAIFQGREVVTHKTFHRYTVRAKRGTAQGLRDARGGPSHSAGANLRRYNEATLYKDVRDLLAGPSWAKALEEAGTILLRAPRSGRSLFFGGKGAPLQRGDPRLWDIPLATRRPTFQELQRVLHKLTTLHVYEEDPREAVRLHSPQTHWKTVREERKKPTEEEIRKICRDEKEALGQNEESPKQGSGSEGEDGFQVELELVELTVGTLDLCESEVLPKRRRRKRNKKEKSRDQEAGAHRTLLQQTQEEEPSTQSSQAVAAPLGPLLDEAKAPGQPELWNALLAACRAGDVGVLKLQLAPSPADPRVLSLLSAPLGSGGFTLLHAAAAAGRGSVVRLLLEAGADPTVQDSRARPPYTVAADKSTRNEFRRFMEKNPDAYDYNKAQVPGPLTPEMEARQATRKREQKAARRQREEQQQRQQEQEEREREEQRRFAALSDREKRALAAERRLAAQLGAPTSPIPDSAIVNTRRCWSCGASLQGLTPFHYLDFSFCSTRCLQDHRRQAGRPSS
UniProt P27216: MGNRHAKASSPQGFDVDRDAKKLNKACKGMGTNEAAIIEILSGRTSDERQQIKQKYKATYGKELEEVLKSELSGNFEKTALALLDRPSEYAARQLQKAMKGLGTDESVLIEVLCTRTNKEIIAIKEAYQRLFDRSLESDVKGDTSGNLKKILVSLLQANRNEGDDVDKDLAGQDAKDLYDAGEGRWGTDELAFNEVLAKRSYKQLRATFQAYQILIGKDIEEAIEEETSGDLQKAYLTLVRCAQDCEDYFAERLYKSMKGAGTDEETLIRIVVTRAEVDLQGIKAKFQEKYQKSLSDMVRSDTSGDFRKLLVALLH
UniProt Q9Y303: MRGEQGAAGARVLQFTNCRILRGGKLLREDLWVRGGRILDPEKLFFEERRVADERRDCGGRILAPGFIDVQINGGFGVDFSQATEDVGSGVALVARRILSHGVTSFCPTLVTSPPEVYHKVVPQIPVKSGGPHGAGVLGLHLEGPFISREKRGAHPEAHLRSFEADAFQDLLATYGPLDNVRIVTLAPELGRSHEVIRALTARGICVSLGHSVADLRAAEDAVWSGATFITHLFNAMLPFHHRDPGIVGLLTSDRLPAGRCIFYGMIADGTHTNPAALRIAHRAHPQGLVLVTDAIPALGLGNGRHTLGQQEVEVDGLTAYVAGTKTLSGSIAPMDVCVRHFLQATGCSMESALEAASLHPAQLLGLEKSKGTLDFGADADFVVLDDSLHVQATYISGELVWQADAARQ
UniProt Q4KMQ2: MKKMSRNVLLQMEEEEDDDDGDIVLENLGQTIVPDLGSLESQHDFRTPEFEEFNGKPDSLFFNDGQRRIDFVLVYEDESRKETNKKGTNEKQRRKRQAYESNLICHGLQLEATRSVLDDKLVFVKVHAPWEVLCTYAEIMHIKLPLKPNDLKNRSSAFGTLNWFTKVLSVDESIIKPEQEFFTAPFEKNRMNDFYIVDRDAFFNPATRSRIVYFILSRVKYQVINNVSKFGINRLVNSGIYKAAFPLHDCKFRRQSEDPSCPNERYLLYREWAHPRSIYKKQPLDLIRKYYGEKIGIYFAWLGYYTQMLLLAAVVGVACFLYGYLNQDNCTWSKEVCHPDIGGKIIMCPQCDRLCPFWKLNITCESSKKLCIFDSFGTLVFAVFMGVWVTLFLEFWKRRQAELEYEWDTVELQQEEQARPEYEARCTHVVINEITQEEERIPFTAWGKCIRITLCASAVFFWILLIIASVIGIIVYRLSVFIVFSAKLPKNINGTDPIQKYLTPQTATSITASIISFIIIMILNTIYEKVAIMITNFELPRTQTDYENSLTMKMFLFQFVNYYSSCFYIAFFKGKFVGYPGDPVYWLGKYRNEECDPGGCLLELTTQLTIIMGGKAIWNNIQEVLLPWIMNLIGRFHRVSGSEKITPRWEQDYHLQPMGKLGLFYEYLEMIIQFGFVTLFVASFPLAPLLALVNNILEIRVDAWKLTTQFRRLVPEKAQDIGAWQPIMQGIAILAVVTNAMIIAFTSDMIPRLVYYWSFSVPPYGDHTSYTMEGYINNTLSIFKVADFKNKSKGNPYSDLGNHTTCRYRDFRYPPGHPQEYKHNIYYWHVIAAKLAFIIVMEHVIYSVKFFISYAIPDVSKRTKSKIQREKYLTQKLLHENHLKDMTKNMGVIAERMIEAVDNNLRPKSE
UniProt Q9BTT0: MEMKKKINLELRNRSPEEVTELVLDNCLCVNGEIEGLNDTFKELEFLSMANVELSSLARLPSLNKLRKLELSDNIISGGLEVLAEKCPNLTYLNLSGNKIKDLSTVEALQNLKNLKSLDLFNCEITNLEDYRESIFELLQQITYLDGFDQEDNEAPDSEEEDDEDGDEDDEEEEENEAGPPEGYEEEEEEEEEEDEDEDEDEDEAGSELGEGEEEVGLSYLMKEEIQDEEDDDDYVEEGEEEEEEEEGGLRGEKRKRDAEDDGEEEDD
UniProt P61966: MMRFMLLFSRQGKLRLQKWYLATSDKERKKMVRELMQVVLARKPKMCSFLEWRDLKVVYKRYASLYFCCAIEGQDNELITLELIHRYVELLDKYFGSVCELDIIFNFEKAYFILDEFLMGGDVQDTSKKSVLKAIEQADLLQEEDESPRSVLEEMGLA
UniProt P49189: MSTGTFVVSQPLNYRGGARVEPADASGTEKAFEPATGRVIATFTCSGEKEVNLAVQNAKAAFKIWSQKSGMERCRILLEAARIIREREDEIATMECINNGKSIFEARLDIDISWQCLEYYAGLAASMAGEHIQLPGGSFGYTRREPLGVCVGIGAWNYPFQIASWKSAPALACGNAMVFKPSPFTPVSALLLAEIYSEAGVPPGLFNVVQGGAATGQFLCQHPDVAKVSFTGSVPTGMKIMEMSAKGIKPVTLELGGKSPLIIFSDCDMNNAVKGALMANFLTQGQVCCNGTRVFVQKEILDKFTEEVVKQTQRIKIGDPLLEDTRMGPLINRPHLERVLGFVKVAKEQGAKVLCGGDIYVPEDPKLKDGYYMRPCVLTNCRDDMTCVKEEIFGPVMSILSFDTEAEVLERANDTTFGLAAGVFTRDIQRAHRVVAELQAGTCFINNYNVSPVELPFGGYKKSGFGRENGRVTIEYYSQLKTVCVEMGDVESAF
UniProt Q8WVL7: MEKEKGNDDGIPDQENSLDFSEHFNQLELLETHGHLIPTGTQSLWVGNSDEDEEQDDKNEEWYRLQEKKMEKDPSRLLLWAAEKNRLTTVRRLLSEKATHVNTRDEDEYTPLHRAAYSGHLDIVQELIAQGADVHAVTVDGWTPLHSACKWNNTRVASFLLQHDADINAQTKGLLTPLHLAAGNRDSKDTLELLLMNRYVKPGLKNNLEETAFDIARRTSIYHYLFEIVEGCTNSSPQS
UniProt Q86W34: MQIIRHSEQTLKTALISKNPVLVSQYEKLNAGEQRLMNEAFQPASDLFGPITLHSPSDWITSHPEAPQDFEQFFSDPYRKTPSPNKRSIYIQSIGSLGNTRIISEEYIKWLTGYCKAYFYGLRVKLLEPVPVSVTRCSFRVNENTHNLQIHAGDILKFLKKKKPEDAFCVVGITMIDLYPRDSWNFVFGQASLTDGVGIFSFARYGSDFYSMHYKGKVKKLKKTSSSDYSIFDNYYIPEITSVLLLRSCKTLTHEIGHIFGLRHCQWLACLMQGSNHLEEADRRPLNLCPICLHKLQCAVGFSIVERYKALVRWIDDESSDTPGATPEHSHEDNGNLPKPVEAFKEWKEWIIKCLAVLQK
UniProt Q9BXX2: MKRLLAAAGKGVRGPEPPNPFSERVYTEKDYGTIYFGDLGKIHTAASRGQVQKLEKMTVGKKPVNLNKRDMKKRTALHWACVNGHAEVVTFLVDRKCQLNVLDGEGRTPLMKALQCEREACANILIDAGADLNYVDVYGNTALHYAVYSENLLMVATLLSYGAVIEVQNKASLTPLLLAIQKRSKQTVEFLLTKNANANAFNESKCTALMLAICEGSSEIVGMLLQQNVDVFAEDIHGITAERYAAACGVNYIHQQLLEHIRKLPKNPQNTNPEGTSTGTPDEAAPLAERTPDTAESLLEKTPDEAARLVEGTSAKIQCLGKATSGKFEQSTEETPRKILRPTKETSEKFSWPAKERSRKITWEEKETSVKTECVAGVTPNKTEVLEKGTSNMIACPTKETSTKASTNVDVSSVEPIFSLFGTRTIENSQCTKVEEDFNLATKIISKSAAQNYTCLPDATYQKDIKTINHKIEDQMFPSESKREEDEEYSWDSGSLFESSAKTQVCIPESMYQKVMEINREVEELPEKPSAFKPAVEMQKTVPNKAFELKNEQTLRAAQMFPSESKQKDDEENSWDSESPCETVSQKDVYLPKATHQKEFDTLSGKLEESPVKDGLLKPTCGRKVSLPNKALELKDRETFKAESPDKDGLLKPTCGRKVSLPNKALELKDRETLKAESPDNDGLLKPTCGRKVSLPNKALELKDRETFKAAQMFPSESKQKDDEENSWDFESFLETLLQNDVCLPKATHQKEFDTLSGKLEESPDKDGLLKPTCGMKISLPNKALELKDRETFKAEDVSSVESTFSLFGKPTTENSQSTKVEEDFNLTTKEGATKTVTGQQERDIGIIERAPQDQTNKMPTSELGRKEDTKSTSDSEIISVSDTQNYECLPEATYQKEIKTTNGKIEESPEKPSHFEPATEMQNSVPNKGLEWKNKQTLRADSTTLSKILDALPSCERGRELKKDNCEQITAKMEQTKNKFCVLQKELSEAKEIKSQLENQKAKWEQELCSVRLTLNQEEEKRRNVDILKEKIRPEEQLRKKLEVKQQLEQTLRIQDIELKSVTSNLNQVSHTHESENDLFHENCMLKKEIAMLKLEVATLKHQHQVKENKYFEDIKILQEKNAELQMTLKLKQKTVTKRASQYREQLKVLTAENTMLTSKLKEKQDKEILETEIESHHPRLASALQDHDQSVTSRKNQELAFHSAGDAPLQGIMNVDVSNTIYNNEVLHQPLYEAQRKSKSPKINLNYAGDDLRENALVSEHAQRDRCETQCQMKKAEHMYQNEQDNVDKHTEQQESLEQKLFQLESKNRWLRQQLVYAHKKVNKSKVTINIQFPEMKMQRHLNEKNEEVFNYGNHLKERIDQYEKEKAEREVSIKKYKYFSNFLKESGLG
UniProt Q9NXR5: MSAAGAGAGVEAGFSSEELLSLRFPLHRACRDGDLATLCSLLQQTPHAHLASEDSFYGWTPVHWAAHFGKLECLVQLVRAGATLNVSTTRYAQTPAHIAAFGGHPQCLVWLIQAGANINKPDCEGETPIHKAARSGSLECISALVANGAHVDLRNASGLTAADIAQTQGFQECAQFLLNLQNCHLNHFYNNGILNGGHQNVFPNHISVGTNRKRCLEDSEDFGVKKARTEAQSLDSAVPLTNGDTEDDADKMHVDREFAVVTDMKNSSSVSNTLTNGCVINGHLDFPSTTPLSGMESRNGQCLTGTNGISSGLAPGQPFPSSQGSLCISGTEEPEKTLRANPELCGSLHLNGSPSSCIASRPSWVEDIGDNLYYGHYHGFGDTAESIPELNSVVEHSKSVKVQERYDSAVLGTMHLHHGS
UniProt P39687: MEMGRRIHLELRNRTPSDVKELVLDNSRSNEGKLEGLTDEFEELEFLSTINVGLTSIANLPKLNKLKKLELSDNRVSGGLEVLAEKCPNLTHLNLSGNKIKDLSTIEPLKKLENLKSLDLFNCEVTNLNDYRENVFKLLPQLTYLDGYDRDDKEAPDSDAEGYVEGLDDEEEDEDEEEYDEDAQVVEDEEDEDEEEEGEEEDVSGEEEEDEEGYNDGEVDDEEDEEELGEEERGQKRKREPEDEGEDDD

[1] = compound: CC(=O)c1cnc2ccc(-c3cc(Cl)c(O)c(Cl)c3)nc2c1N[C@H]1CC[C@H](CN(C)C)CC1
Summary of the method: as §1

ralimetinib = compound: CC(C)(C)Cn1c(N)nc2ccc(-c3[nH]c(C(C)(C)C)nc3-c3ccc(F)cc3)nc21 [ralimetinib]
Summary of the method: as §1

[2] = compound: CC(C)(O)CC(=O)NCCn1ccc2ncnc(Nc3ccc(Oc4cccc(C(F)(F)F)c4)c(Cl)c3)c21
Summary of the method: as §1

[3] = compound: CC(C)C1=C2N=C(C=C(N2N=C1)NCC3=CC=CC=C3)NCCCCCCN
Summary of the method: as §1

[4] = compound: CC1=C(C(CC(=O)N1)C2=CC=C(C=C2)C(F)(F)F)C(=O)NC3=C(C=C4C(=C3)C=NN4)F
Summary of the method: as §1

[5] = compound: CC1=C(C2=C(C=C1)C(=O)C3=CC=CC=C3N2CCCN)C
Summary of the method: as §1

[6] = compound: CC1=C(C=C(C=C1)NC(=O)C2=CC(=CC=C2)C(C)(C)C#N)NC3=CC4=C(C=C3)N=CN(C4=O)C
Summary of the method: as §1

[7] = compound: CC1=C(C=C(C=C1)NC(=O)C2=CC(=CC=C2)N(C)C)NC(=O)C3=CC=C(C=C3)O
Summary of the method: as §1

[8] = compound: CC1=CC=C(C=C1)SC2=C3C=C(SC3=CN=C2)C(=O)N
Summary of the method: as §1

vemurafenib = compound: CCCS(=O)(=O)Nc1ccc(F)c(C(=O)c2c[nH]c3ncc(-c4ccc(Cl)cc4)cc23)c1F [vemurafenib]
Summary of the method: as §1

[9] = compound: CCCS(=O)(=O)Nc1ccc(F)c(C(=O)c2c[nH]c3ncc(Cl)cc23)c1F
Summary of the method: as §1

barasertib = compound: CCN(CCCOc1ccc2c(Nc3cc(CC(=O)Nc4cccc(F)c4)[nH]n3)ncnc2c1)CCOP(=O)(O)O [barasertib]
Summary of the method: as §1

[10] = compound: CC[C@@H]1C(=O)N(C)c2cnc(Nc3ccc(C(=O)NC4CCN(C)CC4)cc3OC)nc2N1C1CCCC1
Summary of the method: as §1

volasertib = compound: CC[C@@H]1C(=O)N(C)c2cnc(Nc3ccc(C(=O)N[C@H]4CC[C@H](N5CCN(CC6CC6)CC5)CC4)cc3OC)nc2N1C(C)C [volasertib]
Summary of the method: as §1

[11] = compound: CCn1c(C(=O)N(C2CC2)C2CC2)cc2c3c(ncn3C)c(Nc3cc(C)n(C)n3)nc21
Summary of the method: as §1

[12] = compound: CCn1cc(-c2ccnc3[nH]c(-c4cccc(CN(C)C)c4)cc23)c(-c2ccc(NC(=O)N(C)C)cc2)n1
Summary of the method: as §1

[13] = compound: CN1CCC(CNc2ccc3ncc(-c4cccc(OC(F)(F)F)c4)n3n2)CC1
Summary of the method: as §1

saracatinib = compound: CN1CCN(CCOc2cc(OC3CCOCC3)c3c(Nc4c(Cl)ccc5c4OCO5)ncnc3c2)CC1 [saracatinib]
Summary of the method: as §1

sotrastaurin = compound: CN1CCN(c2nc(C3=C(c4c[nH]c5ccccc45)C(=O)NC3=O)c3ccccc3n2)CC1 [sotrastaurin]
Summary of the method: as §1

Row | Target | log2 fold change (ibrutinib) | log2 fold change [1] | log2 fold change (ralimetinib) | log2 fold change [2] | log2 fold change [3] | log2 fold change [4] | log2 fold change [5] | log2 fold change [6] | log2 fold change [7] | log2 fold change [8] | log2 fold change (vemurafenib) | log2 fold change [9] | log2 fold change (barasertib) | log2 fold change [10] | log2 fold change (volasertib) | log2 fold change [11] | log2 fold change [12] | log2 fold change [13] | log2 fold change (saracatinib) | log2 fold change (sotrastaurin)
1 | ALKBH5 (UniProt Q6P6C2) | inactive: -0.009 | inactive: -0.125 | inactive: -0.183 | inactive: -0.203 | inactive: 0.005 | inactive: -0.122 | inactive: -0.07 | inactive: 0.008 | inactive: -0.021 | inactive: -0.085 | inactive: 0.026 | inactive: 0.012 | inactive: 0.065 | inactive: 0.052 | inactive: -0.038 | inactive: -0.143 | inactive: -0.071 | inactive: 0.019 | inactive: 0.017 | inactive: -0.056
2 | ANKZF1 (UniProt Q9H8Y5) | inactive: 0.026 | inactive: 0.018 | inactive: 0.031 | inactive: -0.024 | inactive: -0.028 | inactive: 0.021 | inactive: -0.012 | inactive: 0.013 | inactive: -0.019 | inactive: 0.008 | inactive: 0.008 | inactive: 0.004 | inactive: -0.08 | inactive: -0.021 | inactive: -0.053 | inactive: -0.001 | inactive: 0.044 | inactive: -0.065 | inactive: 0.021 | inactive: -0.003
3 | ANXA13 isoform 2 (UniProt P27216) | inactive: 0.051 | inactive: 0.092 | inactive: 0.022 | inactive: 0.169 | inactive: -0.057 | inactive: -0.034 | inactive: 0.062 | inactive: 0.053 | inactive: -0.001 | inactive: 0.06 | inactive: -0.129 | inactive: -0.071 | inactive: 0.091 |  | inactive: -0.035 | inactive: 0.131 | inactive: -0.179 | inactive: 0.106 | inactive: 0.004 | inactive: -0.001
4 | AMDHD2 isoform 3 (UniProt Q9Y303) | inactive: 0.032 | inactive: 0.006 | inactive: -0.059 | inactive: -0.025 | inactive: -0.011 | inactive: 0.009 | inactive: 0.013 | inactive: -0.015 | inactive: -0.017 | inactive: -0.017 | inactive: 0.009 | inactive: 0.019 | inactive: -0.021 | inactive: 0.003 | inactive: 0.015 | inactive: -0.024 | inactive: -0.031 | inactive: 0.005 | inactive: -0.007 | inactive: 0.019
5 | ANO6 (UniProt Q4KMQ2) | inactive: 0.02 | inactive: -0.005 | inactive: 0.018 | inactive: -0.011 | inactive: -0.043 | inactive: 0.008 | inactive: 0.042 | inactive: -0.002 | inactive: -0.004 | inactive: 0.017 | inactive: 0.031 | inactive: 0.027 | inactive: 0.023 | inactive: -0.011 | inactive: -0.016 | inactive: -0.015 | inactive: -0.039 | inactive: -0.034 | inactive: 0.025 | inactive: -0.001
6 | ANP32E (UniProt Q9BTT0) | inactive: 0.03 | inactive: -0.009 | inactive: -0.015 | inactive: 0.001 | inactive: 0.022 | inactive: -0.051 | inactive: -0.072 | inactive: 0.011 | inactive: -0.065 | inactive: 0.063 | inactive: -0.012 | inactive: 0.004 | inactive: -0.064 | inactive: 0.059 | inactive: -0.001 | inactive: -0.011 | inactive: -0.058 | inactive: 0.024 | inactive: 0.028 | inactive: -0.023
7 | AP1S1 (UniProt P61966) | inactive: 0.007 | inactive: 0.002 | inactive: 0.051 | inactive: 0.06 | inactive: -0.031 | inactive: -0.06 | inactive: 0.016 | inactive: -0.051 | inactive: -0.015 | inactive: 0 | inactive: -0.048 | inactive: 0.007 | inactive: -0.025 | inactive: -0.021 | inactive: 0.017 | inactive: 0.084 | inactive: 0.04 | inactive: 0.033 | inactive: -0.053 | inactive: 0.008
8 | ALDH9A1 isoform 3 (UniProt P49189) | inactive: -0.017 | inactive: -0.01 | inactive: 0.001 | inactive: 0.039 | inactive: -0.004 | inactive: -0.032 | inactive: 0.022 | inactive: 0.022 | inactive: 0.012 | inactive: -0.01 | inactive: -0.005 | inactive: 0.032 | inactive: -0.003 | inactive: 0.028 | inactive: -0.013 | inactive: -0.003 | inactive: 0.129 | inactive: -0.015 | inactive: -0.02 | inactive: -0.055
9 | ANKRD49 (UniProt Q8WVL7) | inactive: 0.022 | inactive: -0.026 | inactive: 0.03 | inactive: -0.024 | inactive: 0.012 | inactive: -0.025 | inactive: -0.032 | inactive: 0.034 | inactive: 0.018 | inactive: 0.01 | inactive: -0.022 | inactive: -0.014 | inactive: -0.037 | inactive: -0.093 | inactive: 0.011 | inactive: 0.026 | inactive: 0.028 | inactive: -0.003 | inactive: 0.01 | inactive: -0.059
10 | AMZ2 (UniProt Q86W34) | inactive: -0.01 | inactive: -0.028 | inactive: -0.007 | inactive: -0.034 | inactive: -0.021 | inactive: 0.036 | inactive: 0.005 | inactive: -0.029 | inactive: -0.005 | inactive: -0.019 | inactive: 0.053 | inactive: 0.051 | inactive: -0.076 | inactive: 0.044 | inactive: -0.071 | inactive: -0.015 |  |  | inactive: 0.049 | inactive: 0.034
11 | AP1M1 (UniProt Q9BXS5) | inactive: -0.013 | inactive: 0.004 | inactive: 0.011 | inactive: -0.01 | inactive: 0 | inactive: -0.011 | inactive: -0.004 | inactive: -0.007 | inactive: 0.013 | inactive: -0.004 | inactive: 0.009 | inactive: -0.005 | inactive: -0.024 | inactive: 0.006 | inactive: 0.007 | inactive: -0.012 | inactive: -0.067 | inactive: 0.034 | inactive: 0.007 | inactive: 0.01
12 | ANKRD30B (UniProt Q9BXX2) | inactive: -0.063 | inactive: -0.086 | inactive: -0.007 | inactive: -0.16 | inactive: 0.038 | inactive: -0.098 | inactive: -0.064 |  | inactive: 0.024 | inactive: -0.167 | inactive: 0.136 | inactive: 0.024 | inactive: 0.047 | inactive: 0.012 | inactive: 0.003 | inactive: -0.055 | active: -0.755 | inactive: 0.281 | inactive: 0.04 | 
13 | ANKRD10 (UniProt Q9NXR5) | inactive: -0.076 | inactive: -0.172 | inactive: 0.005 | inactive: 0.042 | inactive: -0.023 | inactive: 0.046 | inactive: 0.004 | inactive: -0.008 | inactive: 0.046 | inactive: -0.085 | inactive: 0.056 | inactive: -0.035 | inactive: 0.137 |  | inactive: 0.1 | inactive: 0.115 | inactive: -0.19 | inactive: -0.022 | inactive: 0.017 | inactive: 0.01
14 | ANAPC5 (UniProt Q9UJX4) | inactive: 0.032 | inactive: -0.006 | inactive: 0.033 | inactive: -0.074 | inactive: 0.014 | inactive: 0.016 | inactive: -0.013 | inactive: 0.024 | inactive: 0.022 | inactive: 0.02 | inactive: -0.001 | inactive: 0.012 | inactive: 0.019 | inactive: -0.004 | inactive: -0.032 | inactive: 0.013 | inactive: -0.016 | inactive: -0.055 | inactive: 0.021 | inactive: -0.027
15 | ANP32A (UniProt P39687) | inactive: 0.003 | inactive: -0.003 | inactive: 0.002 | inactive: 0.188 | inactive: -0.041 | inactive: -0.029 | inactive: 0.079 | inactive: -0.025 | inactive: -0.046 | inactive: -0.018 | inactive: -0.025 | inactive: 0.052 | inactive: -0.007 | inactive: -0.011 | inactive: 0.006 | inactive: -0.008 | inactive: -0.085 | inactive: 0.062 | inactive: -0.033 | inactive: -0.002

Some of the entries above in another layout.
Row,Target,log2 fold change (ibrutinib),log2 fold change [1],log2 fold change (ralimetinib),log2 fold change [2],log2 fold change [3],log2 fold change [4],log2 fold change [5],log2 fold change [6],log2 fold change [7],log2 fold change [8],log2 fold change (vemurafenib),log2 fold change [9],log2 fold change (barasertib),log2 fold change [10],log2 fold change (volasertib),log2 fold change [11],log2 fold change [12],log2 fold change [13],log2 fold change (saracatinib),log2 fold change (sotrastaurin)
10,AMZ2 (UniProt Q86W34),inactive: -0.01,inactive: -0.028,inactive: -0.007,inactive: -0.034,inactive: -0.021,inactive: 0.036,inactive: 0.005,inactive: -0.029,inactive: -0.005,inactive: -0.019,inactive: 0.053,inactive: 0.051,inactive: -0.076,inactive: 0.044,inactive: -0.071,inactive: -0.015,,,inactive: 0.049,inactive: 0.034
11,AP1M1 (UniProt Q9BXS5),inactive: -0.013,inactive: 0.004,inactive: 0.011,inactive: -0.01,inactive: 0,inactive: -0.011,inactive: -0.004,inactive: -0.007,inactive: 0.013,inactive: -0.004,inactive: 0.009,inactive: -0.005,inactive: -0.024,inactive: 0.006,inactive: 0.007,inactive: -0.012,inactive: -0.067,inactive: 0.034,inactive: 0.007,inactive: 0.01

From the supplement of paper PMC10849652
